Experimental data: PubChem BioAssay AID1671190 (National Center for Advancing Translational Sciences (NCATS), 2021)
In all, about 580,000 compounds went through this assay and about 6,100 (1.1%) were called active. Inconclusive results, whose numbers are uncertain, are shown with a selection of clear calls. Calls come from the whole dose curve; as a rule, active = well fitted inhibition curve with a large enough effect; inconclusive = small, poorly fitted or top-dose-only effect, or another doubt; inactive = no such curve, though single readings can be large or run the other way. Where the call is inconclusive, the potency comes from a doubtful curve fit.

Chains of the proteins cited; added tags and fusions are not shown. Lines headed by an entry give the natural chain unless they say otherwise; changes in a name come on top.
UniProt P18054: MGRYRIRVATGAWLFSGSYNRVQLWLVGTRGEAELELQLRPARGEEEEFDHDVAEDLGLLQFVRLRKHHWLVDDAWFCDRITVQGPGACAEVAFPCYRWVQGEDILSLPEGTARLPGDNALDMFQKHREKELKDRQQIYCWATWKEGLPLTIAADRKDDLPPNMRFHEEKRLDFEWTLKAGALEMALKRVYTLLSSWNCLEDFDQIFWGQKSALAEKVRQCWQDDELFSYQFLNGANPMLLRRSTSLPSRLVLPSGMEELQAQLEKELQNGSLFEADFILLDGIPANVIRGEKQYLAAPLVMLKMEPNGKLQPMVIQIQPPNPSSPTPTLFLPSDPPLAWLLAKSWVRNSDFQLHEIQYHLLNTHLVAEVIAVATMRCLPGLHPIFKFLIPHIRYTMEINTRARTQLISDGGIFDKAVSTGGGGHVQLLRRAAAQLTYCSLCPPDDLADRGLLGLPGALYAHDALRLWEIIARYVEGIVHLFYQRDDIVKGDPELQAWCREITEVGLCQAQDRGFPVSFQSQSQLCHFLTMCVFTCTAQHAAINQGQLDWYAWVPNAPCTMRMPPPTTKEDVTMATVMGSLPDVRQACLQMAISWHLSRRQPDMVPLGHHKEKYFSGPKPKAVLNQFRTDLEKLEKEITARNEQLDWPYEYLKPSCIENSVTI

biological target: Polyunsaturated fatty acid lipoxygenase ALOX12 (Homo sapiens) (UniProt P18054); experiment: Primary qHTS assay for inhibitors of human arachidonate 12S-lipoxygenase (ALOX12): Round 2; settings: purified 12hLO, xylenol orange hydroperoxide absorbance; activity change, negative = inhibition: at 108 µM (top of the series) unless noted
In short: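 Purified human 12hLO (150 nM final) in 25 mM Hepes, 0.01% Triton X-100, pH 7.0 was preincubated 15 min at room temperature with compound. Then 40 uM arachidonic acid was added, 30 min. Hydroperoxide was read by Fe-XO absorbance ratio 573/405 nm.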
% is set by controls: 0 for no effect and ±100 for the full control effect; potency is the fitted concentration of half-maximal effect.

Row | SMILES | Potency | activity change, negative = inhibition
1 | Cc1c(Cl)cccc1NC(=O)C1CCCc2ccccc21 (stereo not drawn) | inconclusive: 50.1 µM [inhibitor, partial curve, poor fit] | –
2 | Fc1cccc(Nc2nc(-c3ccccc3)no2)c1 | active: 35.5 µM | –
3 | COc1cccc2c1CCN=C2C[C@H]1CN(C(=O)C2CCC2)CC[C@H]1CC(=O)O | inconclusive: 35.5 µM [inhibitor, full curve] | –
4 | CCOc1ccccc1NC(=S)Nc1ccccc1F | inconclusive: 70.8 µM [inhibitor, partial curve, poor fit] | –
5 | S=C(NCc1ccc(Cl)cc1)Nc1ccncc1 | inconclusive: 28.2 µM [inhibitor, single point] | –
6 | COc1ccc2[nH]c(=O)c(CCC(=O)NCCN3CCCCCC3)cc2c1 | inconclusive: 11.2 µM [inhibitor, partial curve, poor fit] | –
7 | CCN(CC)c1nn2c(=O)c(C(=O)NCc3ccccc3Br)cnc2s1 | inconclusive: 100 µM [inhibitor, partial curve, poor fit] | –
8 | Cc1ccc(C(C)C)c(OCCCN2CC(C)OC(C)C2)c1 (stereo not drawn) | inconclusive: 3.16 µM [inhibitor, full curve, poor fit] | –
9 | Cc1ccc(-c2nn(-c3ccccc3)cc2CSC(=N)N)cc1 | inconclusive: 79.4 µM [inhibitor, partial curve, poor fit] | –
10 | CCCC(c1nnnn1Cc1ccc(OC)cc1)N1CCC(C(N)=O)CC1 (stereo not drawn) | inconclusive: 14.1 µM [inhibitor, full curve, poor fit] | –
11 | CC(C)c1ccc(C2NC(=O)NC3=C2CCc2ccccc23)cc1 (stereo not drawn) | – | inconclusive: -37.6% [inhibitor]
12 | C=CCSC1=C(C#N)C(c2ccc(OCC)cc2)CC(=O)N1 (stereo not drawn) | inconclusive: 50.1 µM [inhibitor, partial curve, poor fit] | –
13 | CCOc1ccc(NC(=O)CSc2nc3cc(C(=O)NCC4CCCO4)ccc3c(=O)n2CC2CCCO2)cc1 (stereo not drawn) | inconclusive: 100 µM [inhibitor, partial curve, poor fit] | –
14 | FC(F)(F)C(Oc1nc(N2CCCCC2)nc(N2CCOCC2)n1)C(F)(F)F | inactive | –
15 | Cc1ccccc1N(C)C1CN(C(=O)OC(C)(C)C)C1 | inconclusive: 4.47 µM [inhibitor, full curve, poor fit] | –
16 | CCCCOC(=O)c1cc(-c2ccc(/C=N/n3cnnc3)o2)ccc1Cl | inactive | –
17 | Cc1cccc(NC(=O)c2ccc(Cn3nc(N4CCN(c5ccccc5)CC4)ccc3=O)o2)c1C | inconclusive: 112 µM [inhibitor, partial curve, poor fit] | –
18 | O=C1CCN(C(=O)[C@@H]2CCCN2Cc2ccc(C(F)(F)F)cc2)CCCCCCN1 | inconclusive: 25.1 µM [inhibitor, full curve] | –
19 | Clc1ccc(-c2nc3ccccc3o2)cc1 | inconclusive: 89.1 µM [inhibitor, single point] | –
20 | Cc1noc(C)c1-c1cccc(CCOc2cnc3c(ccn3CC(=O)O)c2)c1 | inconclusive: 79.4 µM [inhibitor, partial curve, poor fit] | –
21 | OC(CN1CCN(c2ccccc2Cl)CC1)c1ccccc1 (stereo not drawn) | inactive | –
22 | O=c1cc(-c2ccncc2)oc2c(-c3cccc(CO)c3)nccc12 | inconclusive: 50.1 µM [inhibitor, partial curve] | –

Row | SMILES | Potency | activity change, negative = inhibition
23 | CC1(C)COC(c2cc([N+](=O)[O-])ccc2Cl)=N1 | inactive | –
24 | Cc1cc(=O)n(C)c(=O)n1CCCCCCN1CCCC1 | inconclusive: 0.562 µM [inhibitor, full curve, poor fit] | –
25 | Cc1ccc(/C=N/NC(=S)Nc2cccc(S(=O)(=O)N(C)C)c2)o1 | inconclusive: 5.62 µM [inhibitor, full curve, poor fit] | –
26 | COc1ccc(-n2nc(C3CCN(C(=O)Cc4ccccn4)CC3)[nH]c2=O)cc1 | inactive | –
27 | COc1ccc(CN=C(Nc2ccccc2)SC2CC(=O)NC2=O)cc1 (stereo not drawn) | inactive | –
28 | COc1ccc(Nc2cc(C(=O)NCc3ccco3)c3ccccc3n2)c(OC)c1 | inactive | –
29 | COc1ccc(NC(=O)C2CC(=O)N(c3n[nH]c4cccc(F)c34)C2)cc1Cl (stereo not drawn) | inconclusive: 12.6 µM [inhibitor, partial curve] | –
30 | C[C@]12CCCCCC3=CC(=O)C=C[C@@]31OC(=O)CC2 | inconclusive: 44.7 µM [inhibitor, partial curve, poor fit] | –
31 | CCCCNc1cccc2c1S(=O)(=O)N[C@@H](C)CO2 | inconclusive: 50.1 µM [inhibitor, partial curve, poor fit] | –
32 | CCOCc1nc(C)c(Cl)c(NS(=O)(=O)c2ccc(N)cc2)n1 | inconclusive: 50.1 µM [inhibitor, partial curve, poor fit] | –
33 | c1cc(-c2cc(-c3cn[nH]c3)c3cncn3c2)cc(N2CCOCC2)c1 | inactive | –
34 | Cc1cc(OCC(=O)NC2CC(C)(C)NC(C)(C)C2)c(C)cc1Br | inactive | –
35 | Cc1ccc(NC(=O)c2c(C)oc3ccc(O)c(CN4CCCC4)c23)c(C)c1 | – | inconclusive: -35.4% [inhibitor]
36 | Cc1ccc(Cn2c(C(C)Nc3nc(C)cs3)nc3cc(Cl)c(Cl)cc32)cc1 (stereo not drawn) | inconclusive: 56.2 µM [inhibitor, partial curve, poor fit] | –
37 | Cc1nnc(SCC(=O)N(C)CCOc2ccc(Cl)cc2)n1Cc1ccccc1 | inconclusive: 56.2 µM [inhibitor, partial curve, poor fit] | –
38 | COc1ccc(-c2nc3n(n2)C(c2ccc(Cl)cc2)C2=C(CC(C)(C)CC2=O)N3)cc1 (stereo not drawn) | inconclusive: 35.5 µM [inhibitor, partial curve, poor fit] | –
39 | CCc1ccc(NC(=O)C2CCCN(c3nn4cc(-c5ccc(OC)cc5)nc4s3)C2)cc1 (stereo not drawn) | inactive | –
40 | CCOC(=O)N1CCC(NC(=O)c2cnn3c2NC(c2ccco2)CC3C(F)(F)F)CC1 (stereo not drawn) | inactive | –
41 | CCCCCCC#CC#Cc1cccc(C(=O)O)c1 | inactive | –
42 | Cc1nc(COc2ccc(C(=O)NCc3ccccc3CN3CCCCC3)cc2)cs1 | inactive | –
43 | CC(NC(=O)Cn1c(=O)c2c(ncn2C2CCCC2)n(Cc2ccccc2)c1=O)c1cccs1 (stereo not drawn) | inconclusive: 5.62 µM [inhibitor, full curve, poor fit] | –

In the list so far, 2 have an aryl thioether with sulfur outside any ring:
Row | SMILES | Potency | activity change, negative = inhibition
13 | CCOc1ccc(NC(=O)CSc2nc3cc(C(=O)NCC4CCCO4)ccc3c(=O)n2CC2CCCO2)cc1 (stereo not drawn) | inconclusive: 100 µM [inhibitor, partial curve, poor fit] | –
37 | Cc1nnc(SCC(=O)N(C)CCOc2ccc(Cl)cc2)n1Cc1ccccc1 | inconclusive: 56.2 µM [inhibitor, partial curve, poor fit] | –
